Reference: PubChem BioAssay AID1487 (National Center for Advancing Translational Sciences (NCATS), 2009)
The list shows a part of the results. Further columns of the screen follow, without active or inactive calls. Compounds called inactive in the main read-out are mostly missing here. Words in brackets tell the shape of the fitted curve; partial curves, single points and poor fits give uncertain potencies.

Assay: qHTS Assay for Modulators of Lamin A Splicing
Conditions: HeLa LMNA splicing GFP/RFP minigene ratio, 48 h
Procedure, shortened: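 Read-out is the ratio of GFP to DsRed2 object intensity, acquired by 488 nm laser-scanning cytometry on HeLa lamin A-EGFP minigene reporter cells. Compound incubation 48 hrs at 37 °C in Opti-MEM with 2% FBS; DMSO 0.5% final.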

[1] = measured here: RFP viability control channel
[2] = measured here: GFP splicing reporter channel

| Structure (SMILES) | AC50 [1] | AC50 [2] |
| --- | --- | --- |
| COc1ccccc1-c1nnc(NC(=O)c2ccc3ncsc3c2)o1 | 11.2 µM [rising, partial curve] | – |
| Cc1cccc(C(=O)NC(=S)Nc2ccc(Cc3ccncc3)cc2)c1 | 20 µM [falling, partial curve] | 25.1 µM [falling, single point] |
| Cc1cccc2cc(CN(Cc3cccs3)Cc3nnnn3Cc3ccccc3)c(=O)[nH]c12 | 25.1 µM [rising, single point] | 35.5 µM [rising, single point] |
| CC(=O)Nc1ccc(S(=O)(=O)N2CCN(C(=O)c3ccccc3F)CC2)cc1 | 22.4 µM [rising, single point] | – |
| CC1(C)CC2CC(C)(CN2S(=O)(=O)c2ccc(N)cc2)C1 (centres undefined) | 35.5 µM [rising, single point] | 35.5 µM [rising, single point] |
| O=C(CN1CCOCC1)N1CCc2ccccc2C(c2ccccc2)C1 (centres undefined) | 20 µM [rising, single point] | 14.1 µM [rising, partial curve, poor fit] |
| CCCN(CC(=O)Nc1cc(C)on1)S(=O)(=O)c1cccc(C(F)(F)F)c1 | 35.5 µM [rising, partial curve, poor fit] | – |
| COc1cccc(/C=N/Nc2snc(SC)c2C#N)c1O | – | 2.51 µM [rising, full curve] |
| CCc1ccccc1N1C(=O)CN(S(=O)(=O)CC)CC1(C)C(=O)NC1CCCCC1 (centres undefined) | 35.5 µM [falling, partial curve, poor fit] | 35.5 µM [falling, partial curve] |
| O=[N+]([O-])c1cc(C=Nc2ccc3ccccc3c2)ccc1Br | 11.2 µM [rising, single point] | – |
| O=C(N1CCN(c2ccccn2)CC1)N1c2ccccc2Sc2ccccc21 | 0.891 µM [rising, full curve] | 25.1 µM [falling, single point] |
| NC(=O)c1ccc([N+](=O)[O-])cc1Cl | – | 35.5 µM [falling, single point] |
| Clc1ccccc1OCCn1cnc2ccccc21 | 22.4 µM [rising, partial curve] | 8.91 µM [rising, partial curve, poor fit] |
| CCOC(=O)N1CCC(NC(=O)CCc2nc(-c3ccc(C)cc3)no2)CC1 | 10 µM [rising, partial curve] | – |
| Cc1ccc(NC(=O)Cc2nn(C)c(=O)c3ccccc23)cc1F | 5.01 µM [rising, full curve] | 7.94 µM [rising, partial curve, poor fit] |
| CC(=O)Nc1ccc(S(=O)(=O)Nc2ccc3c(c2)OCCO3)cc1 | 1.26 µM [falling, full curve, poor fit] | 0.0447 µM [falling, full curve] |
| C=CCCc1ccc(C#N)c(SCc2c(C(=O)OCC)c3cc(OC(C)=O)c(Br)cc3n2C)n1 | 6.31 µM [rising, full curve, poor fit] | – |
| ClC(Br)=C(n1cnc2ccccc21)n1cnc2ccccc21 | 14.1 µM [rising, single point] | 3.98 µM [rising, single point] |

Seven structures from above, sorted by molecular weight, smallest number first.

| Structure (SMILES) | AC50 [1] | AC50 [2] |
| --- | --- | --- |
| Clc1ccccc1OCCn1cnc2ccccc21 | 22.4 µM [rising, partial curve] | 8.91 µM [rising, partial curve, poor fit] |
| CC1(C)CC2CC(C)(CN2S(=O)(=O)c2ccc(N)cc2)C1 (centres undefined) | 35.5 µM [rising, single point] | 35.5 µM [rising, single point] |
| COc1cccc(/C=N/Nc2snc(SC)c2C#N)c1O | – | 2.51 µM [rising, full curve] |
| O=C(CN1CCOCC1)N1CCc2ccccc2C(c2ccccc2)C1 (centres undefined) | 20 µM [rising, single point] | 14.1 µM [rising, partial curve, poor fit] |
| ClC(Br)=C(n1cnc2ccccc21)n1cnc2ccccc21 | 14.1 µM [rising, single point] | 3.98 µM [rising, single point] |
| O=C(N1CCN(c2ccccn2)CC1)N1c2ccccc2Sc2ccccc21 | 0.891 µM [rising, full curve] | 25.1 µM [falling, single point] |
| CC(=O)Nc1ccc(S(=O)(=O)N2CCN(C(=O)c3ccccc3F)CC2)cc1 | 22.4 µM [rising, single point] | – |

More entries follow:

| Structure (SMILES) | AC50 [1] | AC50 [2] |
| --- | --- | --- |
| O=C(CN(C(=O)c1csnn1)c1cccc2ccccc12)NC1CCCC1 | – | 1.58 µM [rising, partial curve] |
| C#CCn1c(=NC(=O)c2ccc(S(=O)(=O)N3CCCc4ccccc43)cc2)sc2cc(S(N)(=O)=O)ccc21 | 0.708 µM [falling, full curve] | – |
| CCn1c2ccccc2c2cc(NC(=O)c3cccc(OC)c3OC)ccc21 | 20 µM [rising, partial curve, poor fit] | – |
| Nc1nc(Cl)c(C=O)c(N2CCCCC2)n1 | 0.1 µM [falling, full curve, poor fit] | – |
| CCOc1ccc(C(=O)NCc2ccccc2)cc1Br | 11.2 µM [rising, single point] | – |
| CCN(CC)c1ccc(/C=C(/C#N)C(=O)NCc2ccccc2)o1 | 0.00501 µM [falling, full curve, poor fit] | 0.00447 µM [falling, full curve, poor fit] |
| C[C@H]1Cc2c(COc3ccccc3)nc3c(c2CO1)CN(S(=O)(=O)c1ccc(Cl)c2nonc12)CC3 | – | 1.41 µM [rising, partial curve] |
| O=C(N/N=C/c1ccc(N2CCOCC2)s1)c1ccccc1Cl | – | 0.0224 µM [falling, full curve, poor fit] |
| Nc1nc(-c2ccccc2)c(N=Nc2ccccc2Cl)s1 | 12.6 µM [rising, partial curve, poor fit] | 20 µM [rising, single point] |
| COc1ccc(-c2nn(-c3ccccc3)cc2/C=N/Nc2ccccn2)cc1OC | 22.4 µM [rising, single point] | 35.5 µM [rising, single point] |
| O=C1CCC(C(=O)OCC(=O)N2N=C3/C(=C/c4ccccc4)CCCC3C2c2ccccc2)N1 (centres undefined) | 15.8 µM [rising, single point] | – |
| O=C(CCCSc1nc2ccccc2[nH]1)Nc1nnc(-c2ccccc2)o1 | – | 12.6 µM [falling, single point] |
| Cc1c(C(=O)Nc2ccc(Cc3ccncc3)cc2)cccc1[N+](=O)[O-] | 25.1 µM [rising, single point] | 15.8 µM [rising, single point] |
| COCCCNC(=S)N1CCCN(c2nc3cc(C)c(C)cc3cc2C#N)CC1 | 31.6 µM [rising, single point] | – |
| Cc1cc(C)n2nc(SCc3nnc(SCc4ccccc4C)s3)nc2n1 | 11.2 µM [rising, single point] | – |
| CCc1n[nH]c(=S)n1/N=C/c1c[nH]c2ccc(Br)cc12 | – | 0.00316 µM [falling, full curve, poor fit] |
| CN1CCN(c2nc(-c3ccc(Br)cc3)nnc2-c2ccccc2)CC1 | – | 20 µM [falling, partial curve, poor fit] |
